# Counter-ions that a name gives are not always drawn. This is one part of the list. Single values are uncertain here, since repeats match poorly.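 Cells: ReNCell VM human fetal ventral-midbrain neural progenitors, differentiated mitogen-free. Blinded raters compared doublecortin-stained (early neurons) or tyrosine hydroxylase-stained (dopaminergic neurons) images with untreated wells, where 0 means no change. After repeats and both raters were averaged, compounds scoring 2 or above became hits for retesting.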
# Experiments:
# ReNCell VM [1] = assay: neuronal differentiation score (DCX+ cell fraction vs untreated, manual image score) (score (-3 to 3)); higher = more neuronal differentiation; settings: 2 uM, 2 weeks
# ReNCell VM [2] = assay: dopaminergic neuron differentiation score (TH+ cell fraction vs untreated, manual image score) (score (0 to 3)); higher = more TH+ dopaminergic neuron differentiation; settings: 2 uM, 4 weeks, BDNF 10 ng/ml + GDNF 10 ng/ml
structure (smiles),measurement,setting,value
CN1CCC(=C2c3ccccc3CC(=O)c3sccc32)CC1,neuronal differentiation score,ReNCell VM [1]; library: Spectrum,inactive: 0
same,dopaminergic neuron differentiation score,ReNCell VM [2]; library: Spectrum,inactive: 0
CC(C)NC[C@H](O)COc1ccc(CC(N)=O)cc1 [S-(-)-Atenolol],neuronal differentiation score,ReNCell VM [1]; library: Tocriscreen,inactive: 0
same,dopaminergic neuron differentiation score,ReNCell VM [2]; library: Tocriscreen,inactive: 0
CCCCCCCCCCCCCCCC(=O)C(F)(F)F,neuronal differentiation score,ReNCell VM [1]; library: Tocriscreen,inactive: 0
same,dopaminergic neuron differentiation score,ReNCell VM [2]; library: Tocriscreen,inactive: 0
CC[N+](CC)(CC)CCC(O)(c1ccccc1)C1CCCCC1 (centres undefined) [Tridihexethyl chloride],neuronal differentiation score,ReNCell VM [1]; library: Prestwick,inactive: 0
same,dopaminergic neuron differentiation score,ReNCell VM [2]; library: Prestwick,inactive: 0
CC(=O)Nc1ccc(OC(=O)c2ccccc2O)cc1,neuronal differentiation score,ReNCell VM [1]; library: Spectrum,inactive: 0
same,dopaminergic neuron differentiation score,ReNCell VM [2]; library: Spectrum,inactive: 0
COc1cc(OC)c2c(=O)c(O)c(-c3ccc(OC)c(OC)c3)oc2c1,neuronal differentiation score,ReNCell VM [1]; library: Spectrum,inactive: 0
same,dopaminergic neuron differentiation score,ReNCell VM [2]; library: Spectrum,inactive: 0
CN1[C@@H]2CC[C@H]1CC(OC(=O)c1c[nH]c3ccccc13)C2 (some centres undefined) [3-Tropanyl-indole-3-carboxylate hydrochloride],neuronal differentiation score,ReNCell VM [1]; library: LOPAC,inactive: 0
same,dopaminergic neuron differentiation score,ReNCell VM [2]; library: LOPAC,inactive: 0
Cc1c(-c2ccccc2)oc2c(C(=O)OCCN3CCCCC3)cccc2c1=O [Flavoxate hydrochloride],neuronal differentiation score,ReNCell VM [1]; library: Prestwick,inactive: 0
same,dopaminergic neuron differentiation score,ReNCell VM [2]; library: Prestwick,inactive: 0
CN1CCN(C(c2ccccc2)c2ccc(Cl)cc2)CC1 (centres undefined),neuronal differentiation score,ReNCell VM [1]; library: Spectrum,inactive: 0
same,dopaminergic neuron differentiation score,ReNCell VM [2]; library: Spectrum,inactive: 0
CCCCCCCCCCCCCCCC(=O)OC[C@H](O)[C@H]1OC(=O)C(O)=C1O,neuronal differentiation score,ReNCell VM [1]; library: Spectrum,inactive: 0
same,dopaminergic neuron differentiation score,ReNCell VM [2]; library: Spectrum,inactive: 0
CCCc1ncc(C[n+]2ccccc2C)c(N)n1 [Amprolium hydrochloride],neuronal differentiation score,ReNCell VM [1]; library: Prestwick,inactive: 0
same,dopaminergic neuron differentiation score,ReNCell VM [2]; library: Prestwick,inactive: 1
Cc1ccc(NC(=O)c2ccc(CN3CCN(C)CC3)cc2)cc1Nc1nccc(-c2cccnc2)n1 [Imatinib],neuronal differentiation score,ReNCell VM [1]; library: Prestwick,inactive: 0
same,dopaminergic neuron differentiation score,ReNCell VM [2]; library: Prestwick,inactive: 0

# Some of the entries so far, with tabs.
structure (smiles)	measurement	setting	value
CN1CCC(=C2c3ccccc3CC(=O)c3sccc32)CC1	dopaminergic neuron differentiation score	ReNCell VM [2]; library: Spectrum	inactive: 0
CC(=O)Nc1ccc(OC(=O)c2ccccc2O)cc1	neuronal differentiation score	ReNCell VM [1]; library: Spectrum	inactive: 0
